Assay results as given in PubChem BioAssay AID504444 (National Center for Advancing Translational Sciences (NCATS), 2011).
Hit rate of the full screen: of about 360,000 compounds, about 7,500 (2.1%) were called active. Inconclusive means that the source gave no clear call. Such entries were picked first, then a sample of the others. The call rests on the fitted dose curve; in most records, active means well fitted inhibition curve with a large enough effect; inconclusive means small, poorly fitted or top-dose-only effect, or effect the other way; inactive means flat fitted curve, though single readings scatter. Where the call is inconclusive, the potency comes from a doubtful curve fit.

test: Nrf2 qHTS screen for inhibitors; conditions: A549 ARE-Fluc reporter, luciferase luminescence, 18-24 h; activity change, negative = inhibition: at 46 µM (top of the series); further: nearly all actives have a fitted effect of over 60% in size
Outline: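 Quantitative HTS in A549 cells stably bearing an antioxidant response element-firefly luciferase construct. Inhibition of Nrf2-driven transcription was scored by luminescence after 18-24 h of compound exposure at 37 °C.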
On the % scale 0 is the no-effect control and ±100 the full control effect; potency means the concentration at half of the fitted maximal effect.

Question: Which Potency does the source give for `COc1ccccc1CNC(=O)c1ccc(-c2nc(CS(=O)c3ccccc3)c(C)o2)cc1` (stereo not given) here?
Answer: The Potency was inconclusive: 7.31 µM [falling, full curve, poor fit].

Question: With `Cc1ccsc1C(=O)OCC(=O)N1C(C)CCCC1C` (stereo not given) as the molecule, how does the Potency read?
Answer: Its Potency is inconclusive: 13 µM [activator, single point].

Question: With `C[C@H](NC(=O)c1ccccc1)C(=O)Nc1nc(-c2ccccn2)cs1` as the molecule, how does the Potency read?
Answer: The Potency was inconclusive: 23.1 µM [falling, single point].

Question: For `COc1ccc(CCN=C(C)C2=C(O)C(c3ccccc3)OC2=O)cc1OC` (stereo not given), which Potency is on record?
Answer: The Potency was inconclusive: 29.1 µM [falling, single point].

Question: With `Cc1snc(SCC(=O)c2ccc(F)cc2)c1C#N` as the molecule, how does the Potency read?
Answer: The Potency was inconclusive: 3.26 µM [activator, full curve].

Question: Which Potency does the source give for `Cc1ccc(C)c(S(=O)(=O)NC(C)C(=O)Nc2ccc(-c3nc4ccccc4s3)cc2)c1` (stereo not given) here?
Answer: The Potency was inconclusive: 2.91 µM [activator, partial curve, poor fit].

Question: For `Cc1cc(F)ccc1NC(=O)C1CCCN(S(=O)(=O)c2ccc3c(c2)CCCC(=O)N3)C1` (stereo not given), which Potency is on record?
Answer: Its Potency is inconclusive: 29.1 µM [falling, single point].

Question: For `COc1ccc(N(Cc2cccs2)C(=O)COc2ccc(C(C)C)cc2)cc1`, which Potency is on record?
Answer: Its Potency is inconclusive: 29.1 µM [falling, single point].

Question: For `O=C(CCC1N=C2c3ccccc3N=C(SCc3ccc(Cl)cc3)N2C1=O)NCc1ccco1` (stereo not given), which Potency is on record?
Answer: The Potency was inconclusive: 29.1 µM [falling, single point].

Question: For `O=C(CC(NC(=O)OCc1ccccc1)C(=O)O)OCc1ccccc1` (stereo not given), which Potency is on record?
Answer: The Potency was inconclusive: 23.1 µM [falling, partial curve].

Question: Which Potency does the source give for `CCCCC(=O)NCCc1cc2c(C)ccc(C)c2[nH]c1=O` here?
Answer: The Potency was inconclusive: 0.731 µM [falling, full curve, poor fit].

Question: Which Potency does the source give for `CC1=C(C(N)=O)C(c2ccncc2)n2nc(-c3ccccc3Cl)nc2N1` (stereo not given) here?
Answer: The Potency was inconclusive: 29.1 µM [falling, single point].

Question: Which Potency does the source give for `c1ccc(-c2cnnc(N3CCCCC3)n2)cc1` here?
Answer: Its Potency is inconclusive: 29.1 µM [activator, single point].

Question: With `Cc1ccc(-c2nc(-c3cccnc3)no2)c(C)c1` as the molecule, how does the Potency read?
Answer: Its Potency is inconclusive: 9.2 µM [activator, partial curve].

Question: Which Potency does the source give for `COc1cc(OC)c(NC(=O)Cn2cnc3sc(C)c(S(=O)(=O)N4CCN(C)CC4)c3c2=O)cc1Cl` here?
Answer: Its Potency is inconclusive: 2.31 µM [falling, partial curve, poor fit].

Question: Which Potency does the source give for `Cc1c(NC(=O)COC(=O)c2cc(-c3ccc(-c4ccccc4)cc3)nc3ccccc23)c(=O)n(-c2ccccc2)n1C` here?
Answer: Its Potency is inconclusive: 0.92 µM [activator, full curve].

Question: For `Cc1ccc(NS(=O)(=O)c2ccc(NC(=O)CSc3ccc(Cl)cc3)cc2)c(C)c1`, which Potency is on record?
Answer: The Potency was inconclusive: 13 µM [falling, partial curve].

Question: With `COc1ccc2ncc3c(-c4ccc(C)c(C)c4)nn(CC(=O)NC4CCCCC4)c3c2c1` as the molecule, how does the “activity change, negative = inhibition” value read?
Answer: Its value is inactive: 9.51%.

Question: With `O=C(O)CCCCCNC(=O)Nc1ccc2c(c1)OCCO2` as the molecule, how does the Potency read?
Answer: Its Potency is inconclusive: 2.06 µM [activator, full curve, poor fit].

Question: With `CCSCCC(NC1=CC(=O)CC(C)(C)C1)C(=O)O` (stereo not given) as the molecule, how does the Potency read?
Answer: The Potency was inconclusive: 18.4 µM [activator, single point].

Question: With `COc1ccccc1NS(=O)(=O)c1cc([N+](=O)[O-])ccc1N/N=C/c1c(C)[nH]c2ccccc12` as the molecule, how does the Potency read?
Answer: Its Potency is inconclusive: 7.31 µM [falling, partial curve, poor fit].

Question: Which “activity change, negative = inhibition” value does the source give for `CCCCC(NC(C)=O)c1nc2ccccc2n1CCC` (stereo not given) here?
Answer: The value was inactive: 7.07%.

Question: With `CCN(CC)S(=O)(=O)c1ccc(S(=O)(=O)Nc2ccc(C(=O)N3CCCC3)cc2)cc1` as the molecule, how does the Potency read?
Answer: Its Potency is inconclusive: 9.2 µM [falling, partial curve].

Question: With `C(=N\n1cnc2ccccc21)/c1cccnc1` as the molecule, how does the “activity change, negative = inhibition” value read?
Answer: The value was inactive: 14.4%.

Question: Which Potency does the source give for `Cc1ccc(CN(C)C(=O)c2cccc(S(=O)(=O)N3CCN(Cc4ccccc4)CC3)c2)o1` here?
Answer: Its Potency is inconclusive: 29.1 µM [falling, partial curve, poor fit].

Question: For `O=C(COCc1cc(-c2cccs2)on1)Nc1ccc(OC(F)(F)F)cc1`, which Potency is on record?
Answer: Its Potency is inconclusive: 29.1 µM [activator, single point].

Question: With `CCOC(=O)c1[nH]c2ccccc2c1NC(=S)Nc1ccccc1` as the molecule, how does the Potency read?
Answer: The Potency was inconclusive: 16.4 µM [activator, partial curve].

Question: Which Potency does the source give for `CC(C)(C)c1ccc(C(=O)Nc2cccc([N+](=O)[O-])c2)cc1` here?
Answer: The Potency was inconclusive: 0.82 µM [activator, partial curve].

Question: Which Potency does the source give for `CC(=O)C1=C(O)C(=O)N(c2ccc(O)cc2)C1c1ccccc1Cl` (stereo not given) here?
Answer: The Potency was inconclusive: 16.4 µM [activator, partial curve, poor fit].

Question: Which Potency does the source give for `CCCCOc1ccc(NC(=O)Cn2nnnc2-c2ccccc2F)cc1` here?
Answer: The Potency was inconclusive: 20.6 µM [activator, partial curve, poor fit].

Question: For `Cc1cc(C(=O)Nc2cccc(O)c2)co1`, which “activity change, negative = inhibition” value is on record?
Answer: The value was inactive: 16.8%.

Question: For `Cc1c(C(c2cccc([N+](=O)[O-])c2O)c2c(C)n(C)n(-c3ccccc3)c2=O)c(=O)n(-c2ccccc2)n1C`, which “activity change, negative = inhibition” value is on record?
Answer: The value was inactive: 4.27%.

Question: Which Potency does the source give for `CCOc1ccc2c(c1)c(=O)c(S(=O)(=O)c1ccc(C)cc1)cn2CC` here?
Answer: The Potency was inconclusive: 29.1 µM [falling, single point].

Question: With `COC(=O)NCc1c(C)nn(-c2ccccc2)c1-n1cccc1` as the molecule, how does the “activity change, negative = inhibition” value read?
Answer: Its value is inactive: 2.91%.

Question: With `N#C/C(=C\c1cc2ccccc2nc1N1CCOCC1)C(=O)Nc1ccc(N2CCOCC2)cc1` as the molecule, how does the Potency read?
Answer: Its Potency is inconclusive: 16.4 µM [falling, partial curve, poor fit].

Question: Which Potency does the source give for `Cc1sc2ncnc(N3CCC(C(=O)Nc4ccc(OC(F)F)c(Cl)c4)CC3)c2c1C` here?
Answer: Its Potency is inconclusive: 29.1 µM [falling, single point].

Question: Which Potency does the source give for `Clc1ccc2oc(-c3cccnc3)nc2c1` here?
Answer: The Potency was inconclusive: 20.6 µM [activator, single point].

Question: With `Cc1cc(N2C(=O)C(O)=C(C(=O)c3ccc(C)o3)C2c2cccs2)no1` (stereo not given) as the molecule, how does the Potency read?
Answer: The Potency was inconclusive: 10.3 µM [falling, partial curve, poor fit].

Question: For `CC1CCC(NC(=O)c2cc3ccccc3cc2O)CC1` (stereo not given), which Potency is on record?
Answer: Its Potency is inconclusive: 18.4 µM [activator, single point].

Question: With `COc1ccc(CNC(=O)c2cc3c(s2)-c2c(C)cccc2OC3)cc1` as the molecule, how does the Potency read?
Answer: Its Potency is inconclusive: 25.9 µM [falling, partial curve].
